Consider three sequences from paper PMC11045745.

Sequences of proteins named here, by UniProt entry; tags and fusion partners are left off. Residues count along the entry.
UniProt O00571, 132-607: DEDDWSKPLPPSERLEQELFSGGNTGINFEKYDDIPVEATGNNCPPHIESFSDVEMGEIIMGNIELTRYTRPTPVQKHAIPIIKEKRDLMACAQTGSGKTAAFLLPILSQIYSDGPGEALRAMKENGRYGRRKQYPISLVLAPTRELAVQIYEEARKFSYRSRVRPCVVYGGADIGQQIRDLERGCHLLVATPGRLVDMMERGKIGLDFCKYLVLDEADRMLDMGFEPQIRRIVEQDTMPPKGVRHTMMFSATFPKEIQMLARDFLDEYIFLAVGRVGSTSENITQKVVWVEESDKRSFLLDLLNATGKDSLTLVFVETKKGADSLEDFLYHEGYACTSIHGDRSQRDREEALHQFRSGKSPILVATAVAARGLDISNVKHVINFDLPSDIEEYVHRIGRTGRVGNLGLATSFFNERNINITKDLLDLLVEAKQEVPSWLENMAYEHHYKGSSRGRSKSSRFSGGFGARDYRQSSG

For some of these results: A negative result means that nothing was seen under these conditions. For at least one entry, the source does not settle the construct or the ends of the probe. The comparison behind a weaker result is the experiment's own reference, which may not be listed here. For some of these results: At least one verdict rests on a figure or table, not on a statement of the authors.

In data set [1] the target is DDX3X core WT (Homo sapiens) (UniProt O00571). Kind of data set: EMSA. Particulars: tight binding not observed, protein variant not stated in given legend, EMSA: 20 mM HEPES-NaOH pH 7.4, 100 mM NaCl, 5 mM DTT, 10% glycerol, 5 mM ATP/MgCl2 or ADP/EDTA, 100 nM RNA, recombinant protein, residues 132-607, protein details: His6-SUMO removed (Ulp1), two-Gly linker, label: 3'-FAM.

Data set [2] has the same target. Nature of the data set: NMR (13C-1H HMQC). Particulars: ADP, NMR: 35 C (30 C for UA-12mer), 40-50 uM protein (HMQC) or 100 uM RNA (19F), 5 mM ATP/MgCl2, recombinant protein, residues 132-607, protein details: His6-SUMO removed (Ulp1), two-Gly linker.

Turning to “GGGCGGGCCCGCCC (double strand) [GC-14mer-FAM]”, the binding result in data set [1] (ADP/EDTA) and in data set [1] (apo (no nucleotide)) was “binds more weakly” each time. For “GGGCGGGCCCGCCC (double strand) [GC-14mer]”, the binding result in data set [2] (tight binding not observed) is given as “binds more weakly”.

For the sequence UUUUUUUUUU [poly-U10], the binding result in data set [2] (no spectral changes) is listed as “no binding”.
